Experimental data taken from the supplement of paper PMC12823440, “Inhibitors supercharge kinase turnover through native proteolytic circuits” (Nature, 2025).
Structures can show the parent of a compound that is named as a salt. The list shows a part of the results. The calls rarely recur for the same compound in another form.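 Kinases, fused to nanoluciferase, were expressed in K562 cells; luminescence was measured every 4 h from 2 to 18 h as percent of control (DMSO = 100%, positive control = 0%). A time point is decreased if signal falls significantly (2 sigma). Hits were called by the authors by a rule that is not shown; the count of time points alone does not decide it.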

The chains behind the UniProt entries cited, without tags or fusion partners. Where a name states a change or a piece, a line headed by the entry shows the natural chain unless it says otherwise.
UniProt Q15208: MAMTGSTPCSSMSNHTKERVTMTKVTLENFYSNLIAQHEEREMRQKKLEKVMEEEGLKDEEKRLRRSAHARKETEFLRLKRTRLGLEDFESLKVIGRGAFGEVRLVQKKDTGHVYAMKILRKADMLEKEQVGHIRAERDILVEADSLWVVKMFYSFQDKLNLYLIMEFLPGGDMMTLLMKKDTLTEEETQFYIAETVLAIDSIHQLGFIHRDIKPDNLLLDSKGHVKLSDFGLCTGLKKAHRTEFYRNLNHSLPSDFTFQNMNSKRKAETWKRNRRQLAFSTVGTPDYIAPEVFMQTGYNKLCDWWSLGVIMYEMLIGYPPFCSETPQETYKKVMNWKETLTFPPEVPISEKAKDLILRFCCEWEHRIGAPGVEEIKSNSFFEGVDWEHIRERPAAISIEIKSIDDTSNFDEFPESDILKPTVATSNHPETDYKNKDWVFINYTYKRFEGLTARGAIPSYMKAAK
UniProt P42680: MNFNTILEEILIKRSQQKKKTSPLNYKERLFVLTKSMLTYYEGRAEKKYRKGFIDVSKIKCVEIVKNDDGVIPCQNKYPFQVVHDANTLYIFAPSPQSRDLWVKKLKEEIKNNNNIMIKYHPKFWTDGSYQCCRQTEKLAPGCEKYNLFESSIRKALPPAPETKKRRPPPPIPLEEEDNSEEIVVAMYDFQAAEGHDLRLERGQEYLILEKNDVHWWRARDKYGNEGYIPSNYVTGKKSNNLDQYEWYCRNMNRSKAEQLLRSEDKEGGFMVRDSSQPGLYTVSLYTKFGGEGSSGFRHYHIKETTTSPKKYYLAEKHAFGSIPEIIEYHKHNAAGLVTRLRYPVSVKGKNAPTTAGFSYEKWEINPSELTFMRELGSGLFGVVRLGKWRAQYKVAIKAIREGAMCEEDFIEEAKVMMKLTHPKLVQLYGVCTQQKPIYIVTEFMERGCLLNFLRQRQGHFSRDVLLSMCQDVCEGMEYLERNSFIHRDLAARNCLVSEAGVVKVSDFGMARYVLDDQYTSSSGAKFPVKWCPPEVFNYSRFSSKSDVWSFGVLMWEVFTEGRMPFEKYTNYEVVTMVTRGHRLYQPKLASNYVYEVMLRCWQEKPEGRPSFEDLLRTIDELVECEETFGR
UniProt P29597: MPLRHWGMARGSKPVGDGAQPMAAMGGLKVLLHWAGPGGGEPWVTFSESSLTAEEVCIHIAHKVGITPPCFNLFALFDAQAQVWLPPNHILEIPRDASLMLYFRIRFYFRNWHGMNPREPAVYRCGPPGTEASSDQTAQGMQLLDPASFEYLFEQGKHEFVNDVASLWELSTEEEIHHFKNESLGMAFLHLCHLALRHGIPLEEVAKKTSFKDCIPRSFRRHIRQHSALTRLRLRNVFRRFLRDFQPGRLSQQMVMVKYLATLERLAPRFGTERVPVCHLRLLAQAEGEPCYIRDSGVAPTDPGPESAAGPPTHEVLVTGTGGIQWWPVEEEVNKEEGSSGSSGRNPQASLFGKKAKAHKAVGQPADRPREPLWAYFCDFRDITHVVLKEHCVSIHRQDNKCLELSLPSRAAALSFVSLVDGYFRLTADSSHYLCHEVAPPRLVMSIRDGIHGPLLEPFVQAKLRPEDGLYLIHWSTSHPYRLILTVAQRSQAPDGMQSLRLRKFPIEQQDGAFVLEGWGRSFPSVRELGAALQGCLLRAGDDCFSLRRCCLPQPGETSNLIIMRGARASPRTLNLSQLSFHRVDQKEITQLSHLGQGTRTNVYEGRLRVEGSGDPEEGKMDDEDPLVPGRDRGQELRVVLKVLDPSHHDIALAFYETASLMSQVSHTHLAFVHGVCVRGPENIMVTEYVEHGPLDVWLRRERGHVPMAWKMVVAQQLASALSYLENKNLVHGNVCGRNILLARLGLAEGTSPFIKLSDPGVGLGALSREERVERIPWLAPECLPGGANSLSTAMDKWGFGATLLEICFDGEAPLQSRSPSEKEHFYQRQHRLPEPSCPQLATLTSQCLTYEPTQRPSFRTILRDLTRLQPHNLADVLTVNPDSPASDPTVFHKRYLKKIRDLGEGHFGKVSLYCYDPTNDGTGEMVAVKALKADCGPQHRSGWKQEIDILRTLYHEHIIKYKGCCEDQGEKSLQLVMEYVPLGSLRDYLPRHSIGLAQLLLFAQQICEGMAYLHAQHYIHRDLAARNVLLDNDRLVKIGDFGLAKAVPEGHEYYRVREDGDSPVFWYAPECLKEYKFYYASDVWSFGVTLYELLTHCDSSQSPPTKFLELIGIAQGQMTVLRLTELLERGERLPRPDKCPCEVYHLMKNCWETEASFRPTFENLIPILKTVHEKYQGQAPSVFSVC
UniProt Q6PHR2: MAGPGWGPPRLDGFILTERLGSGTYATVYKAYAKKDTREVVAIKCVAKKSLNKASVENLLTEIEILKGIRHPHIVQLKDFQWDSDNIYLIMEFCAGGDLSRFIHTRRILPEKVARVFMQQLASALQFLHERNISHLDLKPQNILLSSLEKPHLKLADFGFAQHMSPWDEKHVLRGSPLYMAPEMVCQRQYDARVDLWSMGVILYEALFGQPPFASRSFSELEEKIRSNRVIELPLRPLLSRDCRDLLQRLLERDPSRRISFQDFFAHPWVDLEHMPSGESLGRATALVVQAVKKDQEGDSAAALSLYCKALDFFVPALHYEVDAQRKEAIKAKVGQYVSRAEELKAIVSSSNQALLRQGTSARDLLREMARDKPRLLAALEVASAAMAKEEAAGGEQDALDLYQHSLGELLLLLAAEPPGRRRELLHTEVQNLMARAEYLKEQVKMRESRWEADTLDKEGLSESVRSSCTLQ
UniProt P31749: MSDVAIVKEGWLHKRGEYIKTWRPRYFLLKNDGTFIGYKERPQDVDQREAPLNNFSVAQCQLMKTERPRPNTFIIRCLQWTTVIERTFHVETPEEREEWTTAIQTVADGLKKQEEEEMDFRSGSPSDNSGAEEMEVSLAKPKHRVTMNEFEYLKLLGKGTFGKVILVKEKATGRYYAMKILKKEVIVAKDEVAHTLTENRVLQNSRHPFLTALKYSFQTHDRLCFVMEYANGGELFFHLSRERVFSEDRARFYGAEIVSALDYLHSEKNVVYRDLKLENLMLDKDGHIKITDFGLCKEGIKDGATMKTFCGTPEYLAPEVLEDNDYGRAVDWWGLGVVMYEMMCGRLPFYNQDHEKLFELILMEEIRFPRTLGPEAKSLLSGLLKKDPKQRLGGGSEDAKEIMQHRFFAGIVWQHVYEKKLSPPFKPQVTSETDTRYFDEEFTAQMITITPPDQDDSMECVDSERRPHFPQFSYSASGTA
UniProt Q9UM73: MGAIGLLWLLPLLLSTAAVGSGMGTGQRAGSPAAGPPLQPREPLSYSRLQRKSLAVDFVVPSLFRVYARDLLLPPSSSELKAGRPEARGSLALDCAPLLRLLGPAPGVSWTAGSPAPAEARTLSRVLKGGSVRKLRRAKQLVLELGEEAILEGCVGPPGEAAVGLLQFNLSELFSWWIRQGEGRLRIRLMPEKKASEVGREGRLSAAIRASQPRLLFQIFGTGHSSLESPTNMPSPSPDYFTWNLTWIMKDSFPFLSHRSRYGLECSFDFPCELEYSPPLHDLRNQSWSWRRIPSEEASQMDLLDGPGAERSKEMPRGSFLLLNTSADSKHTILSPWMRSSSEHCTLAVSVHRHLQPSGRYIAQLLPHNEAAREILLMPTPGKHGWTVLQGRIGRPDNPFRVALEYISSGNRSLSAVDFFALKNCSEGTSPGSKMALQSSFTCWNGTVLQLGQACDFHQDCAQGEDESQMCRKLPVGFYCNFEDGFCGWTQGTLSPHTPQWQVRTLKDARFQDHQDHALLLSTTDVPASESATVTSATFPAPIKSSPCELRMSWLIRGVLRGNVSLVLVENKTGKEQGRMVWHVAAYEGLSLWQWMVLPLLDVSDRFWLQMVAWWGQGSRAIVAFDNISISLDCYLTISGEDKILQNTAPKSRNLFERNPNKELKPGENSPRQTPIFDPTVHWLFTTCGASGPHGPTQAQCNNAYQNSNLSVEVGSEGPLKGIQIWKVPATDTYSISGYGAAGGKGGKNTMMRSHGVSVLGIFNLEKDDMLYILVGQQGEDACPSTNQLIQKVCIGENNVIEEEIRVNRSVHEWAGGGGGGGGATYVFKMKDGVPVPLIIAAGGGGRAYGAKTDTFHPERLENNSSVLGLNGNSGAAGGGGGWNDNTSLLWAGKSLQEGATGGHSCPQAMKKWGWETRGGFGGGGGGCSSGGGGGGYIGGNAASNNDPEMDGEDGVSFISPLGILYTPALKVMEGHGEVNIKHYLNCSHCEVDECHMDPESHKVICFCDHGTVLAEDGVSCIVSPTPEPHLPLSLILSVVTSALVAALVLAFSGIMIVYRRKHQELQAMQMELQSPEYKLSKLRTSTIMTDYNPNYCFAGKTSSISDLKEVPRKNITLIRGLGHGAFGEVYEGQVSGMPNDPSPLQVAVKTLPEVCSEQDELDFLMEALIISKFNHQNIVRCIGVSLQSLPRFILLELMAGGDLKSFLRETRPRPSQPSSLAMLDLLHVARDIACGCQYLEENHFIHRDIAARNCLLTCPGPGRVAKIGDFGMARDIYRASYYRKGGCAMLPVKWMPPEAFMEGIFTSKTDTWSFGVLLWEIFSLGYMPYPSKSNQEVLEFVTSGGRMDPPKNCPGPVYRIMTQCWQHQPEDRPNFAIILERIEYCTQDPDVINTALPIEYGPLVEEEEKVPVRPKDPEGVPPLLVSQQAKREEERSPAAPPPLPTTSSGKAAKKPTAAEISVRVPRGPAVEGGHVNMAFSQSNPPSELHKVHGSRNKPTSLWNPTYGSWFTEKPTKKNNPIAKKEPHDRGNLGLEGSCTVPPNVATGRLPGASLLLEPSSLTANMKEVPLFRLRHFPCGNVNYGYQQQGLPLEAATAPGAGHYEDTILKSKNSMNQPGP
UniProt P10398: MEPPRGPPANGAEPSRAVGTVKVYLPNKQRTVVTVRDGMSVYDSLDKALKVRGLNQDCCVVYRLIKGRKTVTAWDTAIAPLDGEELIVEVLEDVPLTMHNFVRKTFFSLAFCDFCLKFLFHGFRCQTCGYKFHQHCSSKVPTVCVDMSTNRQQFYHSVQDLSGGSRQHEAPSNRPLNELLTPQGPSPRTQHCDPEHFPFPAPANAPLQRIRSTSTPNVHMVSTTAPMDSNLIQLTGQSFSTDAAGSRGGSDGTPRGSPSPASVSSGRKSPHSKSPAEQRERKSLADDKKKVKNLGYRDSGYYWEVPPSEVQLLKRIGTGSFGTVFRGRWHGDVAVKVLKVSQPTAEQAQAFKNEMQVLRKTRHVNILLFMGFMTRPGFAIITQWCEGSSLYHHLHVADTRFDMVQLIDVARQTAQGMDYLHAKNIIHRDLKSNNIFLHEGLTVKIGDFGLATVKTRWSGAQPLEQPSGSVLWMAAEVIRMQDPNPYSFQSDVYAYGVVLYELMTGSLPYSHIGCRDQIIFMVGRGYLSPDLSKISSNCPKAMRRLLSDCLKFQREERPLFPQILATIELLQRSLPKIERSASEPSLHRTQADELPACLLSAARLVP
UniProt Q9UQB9: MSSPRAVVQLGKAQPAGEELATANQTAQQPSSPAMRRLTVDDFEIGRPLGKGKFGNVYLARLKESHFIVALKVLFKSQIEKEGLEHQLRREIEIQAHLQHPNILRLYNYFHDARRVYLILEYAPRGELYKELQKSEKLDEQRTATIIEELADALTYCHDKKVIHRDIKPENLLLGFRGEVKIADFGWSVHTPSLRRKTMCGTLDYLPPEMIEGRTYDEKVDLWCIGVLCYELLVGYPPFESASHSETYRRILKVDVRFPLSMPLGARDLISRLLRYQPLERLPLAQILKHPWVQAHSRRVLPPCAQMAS
UniProt P51451: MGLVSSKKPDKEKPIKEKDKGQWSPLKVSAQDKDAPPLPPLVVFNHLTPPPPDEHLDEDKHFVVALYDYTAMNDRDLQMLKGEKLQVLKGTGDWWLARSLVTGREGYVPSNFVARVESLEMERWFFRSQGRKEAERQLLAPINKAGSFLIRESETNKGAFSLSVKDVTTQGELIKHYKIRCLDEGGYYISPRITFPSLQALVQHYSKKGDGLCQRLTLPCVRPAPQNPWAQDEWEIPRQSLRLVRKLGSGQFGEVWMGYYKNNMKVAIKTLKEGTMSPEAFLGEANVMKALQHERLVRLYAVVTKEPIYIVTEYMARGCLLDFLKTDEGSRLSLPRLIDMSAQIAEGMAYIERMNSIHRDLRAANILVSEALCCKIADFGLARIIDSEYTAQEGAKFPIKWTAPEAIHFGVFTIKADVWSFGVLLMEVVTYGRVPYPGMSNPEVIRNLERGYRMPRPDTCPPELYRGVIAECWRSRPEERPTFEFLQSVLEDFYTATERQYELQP

Tests used:
Details in all cases: K562; 2-18 h
STK38 = STK38 (UniProt Q15208); test: kinase-Nluc reporter destabilization hit call (1 = scored as downregulated) (binary); higher = compound decreases kinase abundance
SYK = SYK (UniProt P43405); test: as above
TEC = TEC (UniProt P42680); test: as above
TYK2 = TYK2 (UniProt P29597); test: as above
ULK3 = ULK3 (UniProt Q6PHR2); test: as above
YES1 = YES1 (UniProt P07947); test: as above
ZAK = ZAK (UniProt Q9NYL2); test: as above
ZAP70 = ZAP70 (UniProt P43403); test: as above
ABL1 = ABL1 (UniProt P00519); test: number of time points (of 5) at which kinase-Nluc abundance scored as decreased, DMSO-normalised (count); higher = more persistent destabilization
AKT1 = AKT1 (UniProt P31749); test: as above
ALK = ALK (UniProt Q9UM73); test: as above
ARAF = ARAF (UniProt P10398); test: as above
AURKA = AURKA (UniProt O14965); test: as above
AURKB = AURKB (UniProt Q96GD4); test: as above
AURKC = AURKC (UniProt Q9UQB9); test: as above
BLK = BLK (UniProt P51451); test: as above
BMX = BMX (UniProt P51813); test: as above
BRAF = BRAF (UniProt P15056); test: as above
BRAF_V600E = test: as above
BTK = BTK (UniProt Q06187); test: as above

Compound	kinase-Nluc reporter destabilization hit call (STK38)	kinase-Nluc reporter destabilization hit call (SYK)	kinase-Nluc reporter destabilization hit call (TEC)	kinase-Nluc reporter destabilization hit call (TYK2)	kinase-Nluc reporter destabilization hit call (ULK3)	kinase-Nluc reporter destabilization hit call (YES1)	kinase-Nluc reporter destabilization hit call (ZAK)	kinase-Nluc reporter destabilization hit call (ZAP70)	number of time points (ABL1)	number of time points (AKT1)	number of time points (ALK)	number of time points (ARAF)	number of time points (AURKA)	number of time points (AURKB)	number of time points (AURKC)	number of time points (BLK)	number of time points (BMX)	number of time points (BRAF)	number of time points (BRAF_V600E)	number of time points (BTK)
Cc1cnc(NC2CCOCC2)nc1-n1cnc(C(=O)N[C@H](CN)c2cc(F)cc(Cl)c2)c1 (10 µM)	inactive: 0	inactive: 0	inactive: 0	inactive: 0	inactive: 0	inactive: 0	inactive: 0	inactive: 0	0	0	0	0	0	0	0	0	0	0	0	0
CS(=O)(=O)c1ccc(-c2cnc(N)c(-c3ccc(C(F)(F)F)nc3)c2)cc1 (10 µM)	inactive: 0	inactive: 0	inactive: 0	inactive: 0	inactive: 0	inactive: 0	inactive: 0	inactive: 0	0	0	0	0	0	0	0	0	0	0	0	0
Cn1ncc2cc(-c3cnc(N)c(Cl)c3N3CCC4(CCNC4=O)CC3)ccc21 (10 µM)	inactive: 0	inactive: 0	inactive: 0	inactive: 0	inactive: 0	inactive: 0	inactive: 0	inactive: 0	0	0	0	0	0	0	0	0	0	0	0	0
CC(C)=CCc1c(-c2ccc(O)cc2O)oc2c3c(cc(O)c2c1=O)OC(C)(C)C=C3 [Morusin] (2.5 µM)	inactive: 0	inactive: 0	inactive: 0	inactive: 0	inactive: 0	inactive: 0	inactive: 0	inactive: 0	0	0	0	0	0	0	0	0	0	0	0	0
CCN(CC)c1cc2oc(=O)c(-c3nc4ccccc4o3)cc2cc1C (2.5 µM)	inactive: 0	inactive: 0	inactive: 0	inactive: 0	inactive: 0	inactive: 0	inactive: 0	inactive: 0	0	0	0	0	0	0	0	0	2	1	0	1
Cn1cc(-c2cnc3cnn(S(=O)(=O)c4cnc5ccc(-c6cnn(C)c6)cn45)c3c2)cn1 [Glumetinib] (10 µM)	inactive: 0	inactive: 0	inactive: 0	inactive: 0	inactive: 0	inactive: 0	inactive: 0	inactive: 0	0	0	0	0	0	0	0	0	0	0	0	0
CC(C)c1cc(/C=C(\C#N)C(=O)NCCCc2ccccc2)cc(C(C)C)c1O (10 µM)	inactive: 0	inactive: 0	inactive: 0	inactive: 0	inactive: 0	inactive: 0	inactive: 0	inactive: 0	0	0	0	0	0	0	0	0	0	0	0	1
COc1ccccc1C(=O)/C=C/c1ccccc1C(=O)O (10 µM)	inactive: 0	inactive: 0	inactive: 0	inactive: 0	inactive: 0	inactive: 0	inactive: 0	inactive: 0	0	0	0	0	0	0	0	0	0	0	0	0
O=[N+]([O-])c1ccc2c(c1)S(=O)(=O)C=C2 [Stattic] (2.5 µM)	inactive: 0	inactive: 0	inactive: 0	inactive: 0	inactive: 0	inactive: 0	inactive: 0	inactive: 0	3	0	0	0	0	0	0	2	4	0	3	0
CNC(=O)c1ccccc1Oc1nc(Nc2cc(OC)c(OC)c(OC)c2)ncc1Br (2.5 µM)	inactive: 0	inactive: 0	inactive: 0	inactive: 0	inactive: 0	inactive: 0	inactive: 0	inactive: 0	0	0	0	0	0	0	0	0	0	0	0	0
CN1C(=O)[C@@H](NC(=O)c2n[nH]c(Cc3ccccc3)n2)COc2ccccc21 (10 µM)	inactive: 0	inactive: 0	inactive: 0	inactive: 0	inactive: 0	inactive: 0	inactive: 0	inactive: 0	0	0	0	0	0	0	0	0	0	0	0	0
NC(=O)N1CCC(CC(=O)N2CCC([C@H]3c4ncc(Br)cc4CCc4cc(Cl)cc(Br)c43)CC2)CC1 [Lonafarnib] (2.5 µM)	inactive: 0	inactive: 0	inactive: 0	inactive: 0	inactive: 0	inactive: 0	inactive: 0	inactive: 0	0	0	0	0	0	0	0	0	0	0	0	0
Cc1nc(-c2cnn(C)c2)nc2c1[nH]c1ncc(-c3ccc(N4CCN(C)CC4)cc3)cc12 [GNE 220 (hydrochloride)] (10 µM)	inactive: 0	inactive: 0	inactive: 0	inactive: 0	inactive: 0	inactive: 0	inactive: 0	inactive: 0	0	0	0	0	0	0	0	0	0	0	0	0
Cn1cc2cc(C(F)(F)c3nnc4ccc(-c5cnn(C6CC6)c5)nn34)c(F)cc2n1 [Bozitinib] (10 µM)	inactive: 0	inactive: 0	inactive: 0	inactive: 0	inactive: 0	inactive: 0	inactive: 0	inactive: 0	0	0	0	0	0	0	0	0	0	0	0	0
C=CCc1ccc(O)c(-c2ccc(O)c(CC=C)c2)c1 [Honokiol] (10 µM)	inactive: 0	inactive: 0	inactive: 0	inactive: 0	inactive: 0	inactive: 0	inactive: 0	inactive: 0	0	0	0	0	0	0	0	0	0	0	0	0
CC(C)(C)n1nc(Cc2ccccc2O)c2c(N)ncnc21 (10 µM)	inactive: 0	inactive: 0	inactive: 0	active: 1	inactive: 0	inactive: 0	inactive: 0	inactive: 0	0	0	0	0	0	0	0	0	0	0	0	0
COc1ccc(-c2c(C)nn3c(NCCN4CCOCC4)cc(C)nc23)cc1OC (10 µM)	inactive: 0	inactive: 0	inactive: 0	inactive: 0	inactive: 0	inactive: 0	inactive: 0	inactive: 0	0	0	0	0	0	0	0	0	0	0	0	0
CCc1cccc(CC)c1NC(=O)N1Cc2[nH]nc(NC(=O)c3ccc(N4CCN(C)CC4)cc3)c2C1 (2.5 µM)	inactive: 0	inactive: 0	inactive: 0	inactive: 0	inactive: 0	inactive: 0	inactive: 0	inactive: 0	2	0	2	0	0	0	0	0	3	2	4	0
CNC(=O)c1ccccc1Nc1nc(Nc2ccc3c(c2OC)CCC[C@H](N2CCN(CCO)CC2)C3)ncc1Cl (10 µM)	inactive: 0	inactive: 0	inactive: 0	inactive: 0	inactive: 0	inactive: 0	inactive: 0	inactive: 0	5	0	1	0	3	4	0	3	2	0	2	0
Nc1ncnc2c1c(COc1cccc(Cl)c1)nn2C1CCOCC1 (10 µM)	inactive: 0	inactive: 0	inactive: 0	inactive: 0	inactive: 0	inactive: 0	inactive: 0	inactive: 0	0	0	0	0	0	0	0	0	0	0	0	0
CC(=O)c1c(C)c2cnc(Nc3ccc(N4CCN(C(=O)CNc5cccc6c5C(=O)N(C5CCC(=O)NC5=O)C6=O)CC4)cn3)nc2n(C2CCCC2)c1=O (stereo not given) (10 µM)	inactive: 0	inactive: 0	inactive: 0	inactive: 0	inactive: 0	inactive: 0	inactive: 0	inactive: 0	0	0	0	0	0	0	0	0	0	0	0	0

Whole records as entered above. Values in the order: kinase-Nluc reporter destabilization hit call (STK38) | kinase-Nluc reporter destabilization hit call (SYK) | kinase-Nluc reporter destabilization hit call (TEC) | kinase-Nluc reporter destabilization hit call (TYK2) | kinase-Nluc reporter destabilization hit call (ULK3) | kinase-Nluc reporter destabilization hit call (YES1) | kinase-Nluc reporter destabilization hit call (ZAK) | kinase-Nluc reporter destabilization hit call (ZAP70) | number of time points (ABL1) | number of time points (AKT1) | number of time points (ALK) | number of time points (ARAF) | number of time points (AURKA) | number of time points (AURKB) | number of time points (AURKC) | number of time points (BLK) | number of time points (BMX) | number of time points (BRAF) | number of time points (BRAF_V600E) | number of time points (BTK)
CNC(=O)c1ccccc1Nc1nc(Nc2ccc3c(c2OC)CCC[C@H](N2CCN(CCO)CC2)C3)ncc1Cl (10 µM) in the list: inactive: 0 | inactive: 0 | inactive: 0 | inactive: 0 | inactive: 0 | inactive: 0 | inactive: 0 | inactive: 0 | 5 | 0 | 1 | 0 | 3 | 4 | 0 | 3 | 2 | 0 | 2 | 0
COc1ccccc1C(=O)/C=C/c1ccccc1C(=O)O (10 µM) in the list: inactive: 0 | inactive: 0 | inactive: 0 | inactive: 0 | inactive: 0 | inactive: 0 | inactive: 0 | inactive: 0 | 0 | 0 | 0 | 0 | 0 | 0 | 0 | 0 | 0 | 0 | 0 | 0
